Laboratory results from paper PMC4481468.
Results are given in words; binding and its absence hold for the method and conditions named. Binding seen in cells or lysates may run through a third protein. These calls come from enrichment with a bait or labelling near it, and not all partners need be listed. One block for each molecule: values may come before it.

Tests used:
[1] = target: T1, Secreted protein acidic and rich in cysteine (SPARC) (rat (endogenous in liver and pancreas)) (UniProt P16975); test: affinity purification with mass spectrometry; co-IP from pooled rat liver tissue lysates with anti-SPARC monoclonal antibody (4°C, 16 h) and protein A/G PLUS agarose beads (4°C, 12 h); 10% SDS-PAGE, silver staining, bands identified by MALDI-TOF peptide mass fingerprinting; rabbit and mouse IgG as controls
T1 sequence: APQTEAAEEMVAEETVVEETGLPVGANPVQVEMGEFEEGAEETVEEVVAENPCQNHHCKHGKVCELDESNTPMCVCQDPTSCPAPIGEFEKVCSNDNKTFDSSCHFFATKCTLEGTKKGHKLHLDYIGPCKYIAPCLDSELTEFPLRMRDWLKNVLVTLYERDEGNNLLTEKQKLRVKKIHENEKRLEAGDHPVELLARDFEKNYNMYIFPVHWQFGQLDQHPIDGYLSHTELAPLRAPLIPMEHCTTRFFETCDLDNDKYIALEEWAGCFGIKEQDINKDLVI

[2] = target: T1, Secreted protein acidic and rich in cysteine (SPARC) (rat (endogenous in liver and pancreas)); test: affinity purification with mass spectrometry; co-IP from pooled rat pancreas tissue lysates with anti-SPARC monoclonal antibody (4°C, 16 h) and protein A/G PLUS agarose beads (4°C, 12 h); 10% SDS-PAGE, silver staining, bands identified by MALDI-TOF peptide mass fingerprinting; rabbit and mouse IgG as controls

Molecule: Adenomatous polyposis coli protein 2 (APC2) (rat (endogenous in pancreas))
binding [2]: binds

B1: Betaine-homocysteine S-methyltransferase 1 (BHMT) (enzyme, UniProt O09171 1-407)
chain: MAPIAGKKAKRGILERLNAGEVVIGDGGFVFALEKRGYVKAGPWTPEAAVEHPEAVRQLHREFLRAGSNVMQTFTFYASEDKLENRGNYVAEKISGQKVNEAACDIARQVADEGDALVAGGVSQTPSYLSCKSETEVKKIFHQQLEVFMKKNVDFLIAEYFEHVEEAVWAVEALKTSGKPIAATMCIGPEGDLHGVSPGECAVRLVKAGAAIVGVNCHFDPSTSLQTIKLMKEGLEAARLKAYLMSHALAYHTPDCGKQGFIDLPEFPFGLEPRVATRWDIQKYAREAYNLGVRYIGGCCGFEPYHIRAIAEELAPERGFLPPASEKHGSWGSGLDMHTKPWIRARARKEYWQNLRIASGRPYNPSMSKPDAWGVTKGAAELMQQKEATTEQQLRALFEKQKFKSAQ
binding [1]: binds

B2: Carbonic anhydrase 3 (CA3) (enzyme, UniProt P14141 1-260)
chain: MAKEWGYASHNGPEHWHELYPIAKGDNQSPIELHTKDIRHDPSLQPWSVSYDPGSAKTILNNGKTCRVVFDDTFDRSMLRGGPLSGPYRLRQFHLHWGSSDDHGSEHTVDGVKYAAELHLVHWNPKYNTFGEALKQPDGIAVVGIFLKIGREKGEFQILLDALDKIKTKGKEAPFNHFDPSCLFPACRDYWTYHGSFTTPPCEECIVWLLLKEPMTVSSDQMAKLRSLFASAENEPPVPLVGNWRPPQPIKGRVVRASFK
binding [1]: binds

B4: Carbamoyl-phosphate synthase (CPS1) (enzyme, UniProt P07756 39-1500)
chain: LSVKAQTAHIVLEDGTKMKGYSFGHPSSVAGEVVFNTGLGGYSEALTDPAYKGQILTMANPIIGNGGAPDTTARDELGLNKYMESDGIKVAGLLVLNYSHDYNHWLATKSLGQWLQEEKVPAIYGVDTRMLTKIIRDKGTMLGKIEFEGQSVDFVDPNKQNLIAEVSTKDVKVFGKGNPTKVVAVDCGIKNNVIRLLVKRGAEVHLVPWNHDFTQMDYDGLLIAGGPGNPALAQPLIQNVKKILESDRKEPLFGISTGNIITGLAAGAKSYKMSMANRGQNQPVLNITNRQAFITAQNHGYALDNTLPAGWKPLFVNVNDQTNEGIMHESKPFFAVQFHPEVSPGPTDTEYLFDSFFSLIKKGKGTTITSVLPKPALVASRVEVSKVLILGSGGLSIGQAGEFDYSGSQAVKAMKEENVKTVLMNPNIASVQTNEVGLKQADAVYFLPITPQFVTEVIKAERPDGLILGMGGQTALNCGVELFKRGVLKEYGVKVLGTSVESIMATEDRQLFSDKLNEINEKIAPSFAVESMEDALKAADTIGYPVMIRSAYALGGLGSGICPNKETLMDLGTKAFAMTNQILVERSVTGWKEIEYEVVRDADDNCVTVCNMENVDAMGVHTGDSVVVAPAQTLSNAEFQMLRRTSINVVRHLGIVGECNIQFALHPTSMEYCIIEVNARLSRSSALASKATGYPLAFIAAKIALGIPLPEIKNVVSGKTSACFEPSLDYMVTKIPRWDLDRFHGTSSRIGSSMKSVGEVMAIGRTFEESFQKALRMCHPSVDGFTPRLPMNKEWPANLDLRKELSEPSSTRIYAIAKALENNMSLDEIVKLTSIDKWFLYKMRDILNMDKTLKGLNSESVTEETLRQAKEIGFSDKQISKCLGLTEAQTRELRLKKNIHPWVKQIDTLAAEYPSVTNYLYVTYNGQEHDIKFDEHGIMVLGCGPYHIGSSVEFDWCAVSSIRTLRQLGKKTVVVNCNPETVSTDFDECDKLYFEELSLERILDIYHQEACNGCIISVGGQIPNNLAVPLYKNGVKIMGTSPLQIDRAEDRSIFSAVLDELKVAQAPWKAVNTLNEALEFANSVGYPCLLRPSYVLSGSAMNVVFSEDEMKRFLEEATRVSQEHPVVLTKFIEGAREVEMDAVGKEGRVISHAISEHVEDAGVHSGDATLMLPTQTISQGAIEKVKDATRKIAKAFAISGPFNVQFLVKGNDVLVIECNLRASRSFPFVSKTLGVDFIDVATKVMIGESVDEKHLPTLEQPIIPSDYVAIKAPMFSWPRLRDADPILRCEMASTGEVACFGEGIHTAFLKAMLSTGFKIPQKGILIGIQQSFRPRFLGVAEQLHNEGFKLFATEATSDWLNANNVPATPVAWPSQEGQNPSLSSIRKLIRDGSIDLVINLPNNNTKFVHDNYVIRRTAVDSGIALLTNFQVTKLFAEAVQKARTVDSKSLFHYRQYSAGKAA
binding [1]: binds

Results, then the molecule that gave them:

binding [1]: binds
Molecule: Rho GTPase-activating protein 20 (RARhoGAP) (rat (endogenous in liver))

binding [2]: binds
B3: Pancreatic alpha-amylase (PA) (enzyme, UniProt P00689 16-508)
chain: QYDPHTADGRTAIVHLFEWRWADIAKECERYLAPKGFGGVQVSPPNENIIINNPSRPWWERYQPISYKICSRSGNENEFKDMVTRCNNVGVRIYVDAVINHMCGSGNSAGTHSTCGSYFNPNNREFSAVPYSAWYFNDNKCNGEINNYNDANQVRNCRLSGLLDLALDKDYVRTKVADYMNNLIDIGVAGFRLDAAKHMWPGDIKAVLDKLHNLNTKWFSQGSRPFIFQEVIDLGGEAIKGSEYFGNGRVTEFKYGAKLGTVIRKWNGEKMSYLKNWGEGWGFVPTDRALVFVDNHDNQRGHGAGGASILTFWDARMYKMAVGFMLAHPYGFTRVMSSYRRTRNFQNGKDVNDWIGPPNNNGVTKEVTINPDTTCGNDWVCEHRWRQIRNMVAFRNVVNGQPFANWWDNGSNQVAFSRGNRGFIVFNNDDWALSSTLQTGLPAGTYCDVISGDKVNGNCTGLKVNVGSDGKAHFSISNSAEDPFIAIHADSKL
